Test results reported in PubChem BioAssay AID504834 (National Center for Advancing Translational Sciences (NCATS), 2011).
In all, about 320,000 compounds went through this assay and about 22,000 (6.9%) were called active. Inconclusive means that the source gave no clear call. Such entries were picked first, then a sample of the others. The call rests on the fitted dose curve; in most records, active means well fitted inhibition curve with a large enough effect; inconclusive means small, poorly fitted or top-dose-only effect, or another doubt; inactive means no such curve, though single readings can be large or run the other way. Potencies beside an inconclusive call are fits to weak or partial responses and may not hold up.

Test: Primary qHTS for delayed death inhibitors of the malarial parasite plastid, 96 hour incubation
Details: P. falciparum luciferase reporter growth; series mostly up to 28.7 µM
Outline: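 96 h incubation, 37 C, 5% CO2, of luciferase-reporter P. falciparum-infected RBCs (2% hematocrit, 0.05% parasitemia final) with test compounds; endpoint luminescence.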
Potency means the concentration at half of the fitted maximal effect.

SMILES | Potency
Cc1ccc(CCNC(=O)C2=CCN(S(=O)(=O)c3ccccc3)CC2)cc1 | inconclusive: 20.8 µM [inhibitor, partial curve, poor fit]
O=C(CCC(=O)Nc1ccc(Cl)cc1Cl)N/N=C/c1ccc([N+](=O)[O-])o1 | inconclusive: 4.15 µM [inhibitor, partial curve, poor fit]
Cc1cnc(C(=O)N2CCCC(C(=O)c3ccc(Cl)cc3C)C2)cn1 (stereo unspecified) | inconclusive: 18.5 µM [inhibitor, single point]
CCC(C)(C)NC(=O)C(c1ccc(C)o1)N(C(=O)c1csnn1)c1cccc(F)c1 (stereo unspecified) | inconclusive: 11.7 µM [inhibitor, partial curve, poor fit]
COC(=O)NC1CSCC1OC(=O)CN1C(=O)c2ccccc2C1=O (stereo unspecified) | inactive
CCOC(=O)C1=C(C)NC(=O)NC1C (stereo unspecified) | inactive
CCCCn1c(N)c(N(CCOC)C(=O)c2c(CC)noc2C)c(=O)[nH]c1=O | inconclusive: 13.1 µM [inhibitor, single point]
O=C(Cc1ccccc1)NCC(=O)OCC(=O)c1ccccc1Cl | inactive
CCCC(=O)NC(=S)Nc1cccc(-c2nc3ncccc3o2)c1 | inconclusive: 7.38 µM [inhibitor, partial curve, poor fit]
NNC(=O)c1ccc(O)cc1 | inactive
CN1CCc2c(c3ccccc3n2C)C1 | inconclusive: 0.233 µM [inhibitor, full curve, poor fit]
O=C(Nc1ccccn1)c1ccc2nc(-c3ccccc3)c(-c3ccccc3)nc2c1 | inactive
C#CCn1c(=NC(=O)c2ccc(Br)s2)sc2cc(NC(C)=O)ccc21 | inactive
COc1ccccc1-c1nnc(Nc2nc3c(OC)cccc3s2)o1 | inconclusive: 9.28 µM [inhibitor, single point]
Cc1ccc(SCC(=O)N2CCC(C(N)=O)CC2)cc1 | inconclusive: 11.7 µM [inhibitor, single point]
CC1CCCC(NC(=O)c2ccc3c(c2)N(Cc2ccccc2)C(=O)CS3=O)C1C (stereo unspecified) | active: 10.4 µM
COC(=O)CSc1nc(N)c(C#N)c(CC(C)C)c1C#N | inconclusive: 4.15 µM [inhibitor, partial curve, poor fit]
O=C(Nc1nccs1)c1ccc2ccccc2c1 | inactive
CC(=O)c1cccc(NC(=O)COc2cc(C)on2)c1 | inactive
O=S(=O)(/N=C(/Nc1ccc(Cl)c(S(=O)(=O)Nc2ccccc2Cl)c1)c1ccc(F)cc1)c1ccccc1 | inconclusive: 4.15 µM [inhibitor, single point]
O=C(O)c1cccc(Nc2ncnc3sccc23)c1 | inactive
CC(C)[C@H](NC(=O)N1c2ccccc2NC(=O)[C@@H]1C(C)C)C(=O)N[C@@H](Cc1ccccc1)C(=O)O | inconclusive: 0.0928 µM [inhibitor, full curve, poor fit]
CCC(CO)[n+]1c(C)cc(/C=C2\Sc3ccccc3N2Cc2ccccc2)cc1C (stereo unspecified) | inconclusive: 0.0657 µM [inhibitor, full curve, poor fit]
Cc1ccc(-c2nn(-c3ccccc3)cc2C(N)=O)o1 | inactive

SMILES | Potency
COc1ccc([C@H]2CC(=O)C=C(c3ccc4cc[nH]c4c3)C2)cc1 | inconclusive: 2.94 µM [inhibitor, partial curve, poor fit]
CCOC(=O)c1c(C)[nH]c(C(=O)OCC(=O)NCCc2ccc(OCC)c(OCC)c2)c1C | inconclusive: 10.4 µM [inhibitor, partial curve]
COc1ccc(CCn2c(N3CCN(Cc4ccccc4)CC3)nc3c2c(=O)[nH]c(=O)n3C)cc1 | inconclusive: 11.7 µM [inhibitor, single point]
C/C(=N\NC(=O)c1ccn(C)n1)c1cccc(NC(=O)c2ccncc2)c1 | inconclusive: 2.94 µM [inhibitor, single point]
CCCCn1c(CN2CCN(c3ccc(F)cc3)CC2)nc2c1c(=O)n(C)c(=O)n2C | inconclusive: 18.5 µM [inhibitor, single point]
COc1ccc(CNc2nc3ccccc3n2C(C)C)cc1 | inconclusive: 9.28 µM [inhibitor, single point]
Cc1nnc(SCc2ccc(F)cc2)n1NC/C=C/c1ccccc1 | active: 5.86 µM
O=C(CN1C(=O)CSC1=O)c1ccccc1 | inactive
CCN1CCN(C(=O)CCCCCn2c(=O)[nH]c3cc(C(=O)OC)ccc3c2=O)CC1 | inconclusive: 13.1 µM [inhibitor, partial curve, poor fit]
CC(C)CN(C(=O)COC(=O)c1ccccc1SCC(=O)NC1CCCCCC1)C1CCS(=O)(=O)C1 (stereo unspecified) | inconclusive: 18.5 µM [inhibitor, single point]
Cc1ccc(S(=O)(=O)N2CCOC2CNC(=O)C(=O)NCCc2c[nH]c3ccccc23)cc1 (stereo unspecified) | inconclusive: 5.22 µM [inhibitor, partial curve, poor fit]
CN(C)c1nc(OCCNC(=O)Nc2ccc(Cl)cc2)nc(N(C)C)n1 | inconclusive: 6.57 µM [inhibitor, partial curve, poor fit]
COc1ccc(CNS(=O)(=O)c2cc(-c3cc(C)no3)ccc2OC)cc1OC | inconclusive: 13.1 µM [inhibitor, single point]
CCN(Cc1nc2ccccc2c(=O)[nH]1)C(=O)c1cccc(S(=O)(=O)N2CCc3ccccc32)c1 | inconclusive: 14.7 µM [inhibitor, partial curve, poor fit]
Cc1ccc(S(=O)(=O)Nc2ccc(-c3cn4ccc(C)cc4n3)cc2)cc1 | inactive
CCOC(=O)c1nn(-c2ccc(F)cc2)c(=O)cc1OCC(=O)Nc1ccc(OCC)cc1 | inactive
COc1ccc(CN(C(=O)CN2C(=O)C(C)Oc3ccccc32)C2CCCC2)c(OC)c1 (stereo unspecified) | active: 8.28 µM
O=C(CCCOc1ccc(Br)cc1)Nc1nnc(C2CC2)s1 | inactive
O=C(NC(=S)Nc1ccc(S(=O)(=O)Nc2nccs2)cc1)c1cccc(F)c1 | inactive
CCOCCCNc1nc2ccccc2[nH]1 | inconclusive: 7.38 µM [inhibitor, partial curve]
Cc1c(C)c2c(OCC(=O)NC3CC3)cc3c(c2oc1=O)CCC(C)(C)O3 | active: 11.7 µM
Cc1cc2cc3c(cc2nc1SCC(=O)Nc1nc(C)c(C)s1)OCO3 | inconclusive: 0.0738 µM [inhibitor, full curve, poor fit]
N#C/C(=C\c1c[nH]c2ccccc12)c1nnc2n1CCCCC2 | inconclusive: 18.5 µM [inhibitor, single point]
COc1cc(CN(C)Cc2cccc3ccccc23)cc([N+](=O)[O-])c1O | inconclusive: 7.38 µM [inhibitor, partial curve, poor fit]

SMILES | Potency
CC(C)Cc1nnc(NC(=O)CSc2ccccn2)s1 | inconclusive: 0.0026 µM [inhibitor, full curve, poor fit]
CN1C(=O)/C(=C/c2cccc(Cl)c2)Sc2ccc(C(=O)N3CCOCC3)cc21 | inconclusive: 6.57 µM [inhibitor, partial curve]
Cc1cc(NC(=O)CSc2nc3c(c(=O)n2Cc2ccccc2)SC(C)C3)no1 (stereo unspecified) | active: 1.47 µM
CCC(C)c1ccccc1NC(=O)COC(=O)C1=COCCO1 (stereo unspecified) | inactive
CCCc1nnc(NC(=O)CCN2C(=O)c3ccccc3C2=O)s1 | inconclusive: 2.33 µM [inhibitor, partial curve, poor fit]
O=C1Nc2ccc(NS(=O)(=O)c3cccs3)c3cccc1c23 | active: 10.4 µM
CCN(CC)S(=O)(=O)c1cccc(-c2nnc(SCC(=O)NCCC3=CCCCC3)n2N)c1 | active: 11.7 µM
CCOc1ccc(OCCOCCNCCOC)cc1 | inconclusive: 13.1 µM [inhibitor, single point]
Cc1cc(=O)[nH]c(SCC(=O)c2ccc(C(C)C)cc2)n1 | inactive
Cc1ccc(S(=O)(=O)N2CCOCC2)cc1NC(=O)COC(=O)CNC(=O)c1ccc(Cl)cc1Cl | inactive
CCc1nnc(NS(=O)(=O)c2ccc(Nc3ccc([N+](=O)[O-])c4nonc34)cc2)s1 | inconclusive: 0.233 µM [inhibitor, partial curve, poor fit]
COc1cccc(-n2c(SCC(=O)NC3CCS(=O)(=O)C3)nc3ccccc3c2=O)c1 (stereo unspecified) | inconclusive: 13.1 µM [inhibitor, single point]
CCOc1ccccc1NC(=O)N1CCCC(c2nc(-c3ccc(C)o3)no2)C1 (stereo unspecified) | inactive
C/C(=N\NC(=O)c1cc(-c2ccc(O)cc2)nc2ccccc12)c1cccnc1 | active: 9.28 µM
Cn1cc(C(=O)Nc2ccc(F)c(Cl)c2)cn1 | inactive
C(#Cc1ccc(C#CCN2CCOCC2)cc1)CN1CCOCC1 | inactive
O=C(NC(=S)NNC(=O)c1ccco1)c1ccc(F)cc1 | inconclusive: 18.5 µM [inhibitor, single point]
Cc1ccc(NC(=S)NNC(=O)c2c(Cl)c(C)nn2C)cc1 | inconclusive: 11.7 µM [inhibitor, single point]
O=C(c1ccco1)N1CCN(Cc2ccc(Cl)cc2)CC1 | inactive
C=CCN(CC=C)Cc1c[nH]c2ccccc12 | inconclusive: 0.0029 µM [inhibitor, full curve, poor fit]
Cc1ccccc1C(=O)N1CCN(c2nc(N3CCOCC3)nc(N3CCOCC3)n2)CC1 | inconclusive: 18.5 µM [inhibitor, single point]
CC1Cc2ccccc2N1c1ncnc2nc[nH]c12 (stereo unspecified) | inconclusive: 18.5 µM [inhibitor, single point]
N#Cc1ccsc1NC(=O)CN1CCN(S(=O)(=O)c2ccccc2C(F)(F)F)CC1 | inconclusive: 9.28 µM [inhibitor, partial curve]

Reprinted at random: 5 records from the list.
SMILES | Potency
Cc1nnc(SCc2ccc(F)cc2)n1NC/C=C/c1ccccc1 | active: 5.86 µM
O=C(NC(=S)Nc1ccc(S(=O)(=O)Nc2nccs2)cc1)c1cccc(F)c1 | inactive
O=C(CN1C(=O)CSC1=O)c1ccccc1 | inactive
CCOC(=O)C1=C(C)NC(=O)NC1C (stereo unspecified) | inactive
Cc1ccccc1C(=O)N1CCN(c2nc(N3CCOCC3)nc(N3CCOCC3)n2)CC1 | inconclusive: 18.5 µM [inhibitor, single point]
